Compound in this assay: c1cn2cc(-c3ccc4cn[nH]c4c3)nc(Nc3ccc(N4CCOCC4)cc3)c2n1 [entospletinib]
Briefly: log2 fold change, soluble protein after heating vs DMSO (PISA); higher = thermal stabilisation; K562 cells, 10 uM, 30 min; active = over 0.2 and 3.5 SD of the protein, either way, in both replicates (recomputed). Summed up: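 Soluble protein was quantified by TMTpro 16plex LC-MS/MS after channel sums were equalised. It was obtained as the supernatant after 21,000xg for 90 min from pooled aliquots of K562 cells (2×10^6 cells/mL, 10 μM compound, 30 min) heated for 3 min across 48°C-58°C and extracted in PBS with 0.5% NP-40 at 4°C. Thermal stability values are relative to control samples and come from duplicates. They are given as log2 fold changes.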

Amino acid sequences for entries named in this document (tags omitted). A change or cut given only in a name is not applied to a line headed by its entry.
UniProt O95347, whole entry, looked up: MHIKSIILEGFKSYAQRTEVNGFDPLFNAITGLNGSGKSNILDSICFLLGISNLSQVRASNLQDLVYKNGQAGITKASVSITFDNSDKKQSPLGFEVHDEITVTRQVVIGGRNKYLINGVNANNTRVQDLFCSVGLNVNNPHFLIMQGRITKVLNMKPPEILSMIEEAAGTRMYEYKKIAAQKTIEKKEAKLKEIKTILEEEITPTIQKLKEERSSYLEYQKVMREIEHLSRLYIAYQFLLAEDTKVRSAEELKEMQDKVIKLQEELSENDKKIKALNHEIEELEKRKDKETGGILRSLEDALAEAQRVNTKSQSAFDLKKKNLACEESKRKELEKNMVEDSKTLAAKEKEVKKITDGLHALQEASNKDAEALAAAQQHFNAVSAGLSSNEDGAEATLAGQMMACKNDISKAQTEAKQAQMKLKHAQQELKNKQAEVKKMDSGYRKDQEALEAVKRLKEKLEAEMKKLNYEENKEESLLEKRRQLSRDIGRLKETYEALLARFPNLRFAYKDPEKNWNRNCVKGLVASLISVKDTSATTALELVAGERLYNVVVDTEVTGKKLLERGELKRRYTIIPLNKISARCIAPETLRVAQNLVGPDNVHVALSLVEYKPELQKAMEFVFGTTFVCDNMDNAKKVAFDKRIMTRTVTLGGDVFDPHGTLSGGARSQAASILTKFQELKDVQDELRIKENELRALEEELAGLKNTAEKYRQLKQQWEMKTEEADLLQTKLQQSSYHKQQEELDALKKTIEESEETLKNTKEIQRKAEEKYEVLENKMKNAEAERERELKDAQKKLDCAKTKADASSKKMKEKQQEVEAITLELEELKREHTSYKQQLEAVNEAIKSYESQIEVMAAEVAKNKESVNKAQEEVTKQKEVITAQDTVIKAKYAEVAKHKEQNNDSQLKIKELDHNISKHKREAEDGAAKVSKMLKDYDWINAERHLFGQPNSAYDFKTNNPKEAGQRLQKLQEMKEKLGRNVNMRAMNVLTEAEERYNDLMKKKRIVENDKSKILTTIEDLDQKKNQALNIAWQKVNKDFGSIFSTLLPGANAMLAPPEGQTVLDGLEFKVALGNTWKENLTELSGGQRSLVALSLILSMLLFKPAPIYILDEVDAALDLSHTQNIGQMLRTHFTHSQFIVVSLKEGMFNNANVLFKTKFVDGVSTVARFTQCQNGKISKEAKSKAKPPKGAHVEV
UniProt O60906: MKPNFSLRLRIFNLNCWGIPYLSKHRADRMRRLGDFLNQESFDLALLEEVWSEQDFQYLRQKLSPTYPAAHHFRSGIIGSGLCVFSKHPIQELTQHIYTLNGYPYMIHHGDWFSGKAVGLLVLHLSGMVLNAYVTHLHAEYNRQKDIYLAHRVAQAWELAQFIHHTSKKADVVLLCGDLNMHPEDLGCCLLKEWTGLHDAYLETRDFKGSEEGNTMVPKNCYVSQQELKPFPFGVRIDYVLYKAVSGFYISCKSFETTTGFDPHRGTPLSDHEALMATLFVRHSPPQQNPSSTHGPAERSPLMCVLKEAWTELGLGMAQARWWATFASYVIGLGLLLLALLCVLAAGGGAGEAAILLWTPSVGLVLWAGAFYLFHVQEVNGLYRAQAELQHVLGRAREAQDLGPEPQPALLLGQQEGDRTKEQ
UniProt Q15506: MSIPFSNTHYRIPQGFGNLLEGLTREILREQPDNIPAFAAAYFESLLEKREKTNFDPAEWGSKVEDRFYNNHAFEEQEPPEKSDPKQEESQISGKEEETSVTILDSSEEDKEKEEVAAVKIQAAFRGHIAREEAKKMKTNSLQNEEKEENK
UniProt Q9Y5X2: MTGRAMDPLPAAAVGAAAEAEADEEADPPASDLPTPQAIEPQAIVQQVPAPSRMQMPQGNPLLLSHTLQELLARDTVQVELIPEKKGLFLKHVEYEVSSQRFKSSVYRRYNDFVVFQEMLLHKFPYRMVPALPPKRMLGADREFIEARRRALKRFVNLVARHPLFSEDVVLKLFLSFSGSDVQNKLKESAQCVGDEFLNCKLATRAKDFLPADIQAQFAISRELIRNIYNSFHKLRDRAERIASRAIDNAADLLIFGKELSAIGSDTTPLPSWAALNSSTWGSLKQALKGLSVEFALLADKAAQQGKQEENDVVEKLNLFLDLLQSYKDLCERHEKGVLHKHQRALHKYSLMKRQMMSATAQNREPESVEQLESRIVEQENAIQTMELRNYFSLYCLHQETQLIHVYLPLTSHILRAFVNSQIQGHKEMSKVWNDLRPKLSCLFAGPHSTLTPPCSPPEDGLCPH
UniProt Q9Y5W7: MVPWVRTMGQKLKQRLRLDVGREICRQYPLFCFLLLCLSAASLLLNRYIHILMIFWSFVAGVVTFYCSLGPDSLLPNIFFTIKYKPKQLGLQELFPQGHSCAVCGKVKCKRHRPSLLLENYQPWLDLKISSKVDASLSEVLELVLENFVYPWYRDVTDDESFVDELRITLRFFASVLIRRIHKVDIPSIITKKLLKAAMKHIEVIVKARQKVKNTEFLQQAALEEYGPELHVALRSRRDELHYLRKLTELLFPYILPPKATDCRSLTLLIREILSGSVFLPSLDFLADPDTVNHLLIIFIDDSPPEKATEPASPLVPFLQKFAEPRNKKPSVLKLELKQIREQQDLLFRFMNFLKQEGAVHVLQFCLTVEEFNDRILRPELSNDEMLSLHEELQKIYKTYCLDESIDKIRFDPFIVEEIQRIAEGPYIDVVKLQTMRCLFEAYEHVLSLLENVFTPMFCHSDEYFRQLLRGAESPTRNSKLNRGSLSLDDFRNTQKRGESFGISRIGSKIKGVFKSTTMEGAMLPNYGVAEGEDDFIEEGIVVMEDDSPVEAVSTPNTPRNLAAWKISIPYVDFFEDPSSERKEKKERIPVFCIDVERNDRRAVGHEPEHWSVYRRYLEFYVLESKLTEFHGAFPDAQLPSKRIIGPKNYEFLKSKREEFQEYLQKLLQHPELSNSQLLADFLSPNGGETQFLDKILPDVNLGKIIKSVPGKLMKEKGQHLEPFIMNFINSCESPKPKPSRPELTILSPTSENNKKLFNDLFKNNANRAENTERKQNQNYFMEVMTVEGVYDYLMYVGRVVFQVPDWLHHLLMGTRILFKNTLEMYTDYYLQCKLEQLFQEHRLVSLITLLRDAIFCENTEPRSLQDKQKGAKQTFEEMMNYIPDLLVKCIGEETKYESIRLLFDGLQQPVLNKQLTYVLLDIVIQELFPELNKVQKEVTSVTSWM
UniProt Q8TEV9: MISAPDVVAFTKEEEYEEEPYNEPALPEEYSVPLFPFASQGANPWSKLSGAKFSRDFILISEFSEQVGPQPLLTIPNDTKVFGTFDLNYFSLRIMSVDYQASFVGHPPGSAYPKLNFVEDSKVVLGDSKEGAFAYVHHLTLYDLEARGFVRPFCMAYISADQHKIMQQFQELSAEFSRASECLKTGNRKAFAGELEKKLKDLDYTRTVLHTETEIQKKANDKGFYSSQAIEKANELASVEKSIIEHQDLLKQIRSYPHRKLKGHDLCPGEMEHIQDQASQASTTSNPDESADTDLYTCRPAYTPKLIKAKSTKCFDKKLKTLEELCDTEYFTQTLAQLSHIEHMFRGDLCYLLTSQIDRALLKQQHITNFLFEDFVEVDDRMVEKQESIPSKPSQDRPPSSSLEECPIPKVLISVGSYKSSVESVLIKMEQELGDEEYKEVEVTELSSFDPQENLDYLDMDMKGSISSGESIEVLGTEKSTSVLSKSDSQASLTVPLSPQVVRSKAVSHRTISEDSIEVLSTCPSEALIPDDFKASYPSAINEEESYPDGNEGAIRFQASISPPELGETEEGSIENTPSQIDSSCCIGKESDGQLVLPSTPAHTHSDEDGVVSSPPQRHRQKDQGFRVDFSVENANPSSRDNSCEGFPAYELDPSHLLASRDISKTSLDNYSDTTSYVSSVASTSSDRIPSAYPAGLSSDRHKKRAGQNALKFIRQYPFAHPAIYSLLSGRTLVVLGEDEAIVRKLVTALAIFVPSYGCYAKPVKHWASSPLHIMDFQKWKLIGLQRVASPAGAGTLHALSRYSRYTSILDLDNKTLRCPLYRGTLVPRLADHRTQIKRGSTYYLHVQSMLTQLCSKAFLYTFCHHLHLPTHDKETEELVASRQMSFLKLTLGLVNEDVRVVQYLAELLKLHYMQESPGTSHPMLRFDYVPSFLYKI
UniProt P0DJ93: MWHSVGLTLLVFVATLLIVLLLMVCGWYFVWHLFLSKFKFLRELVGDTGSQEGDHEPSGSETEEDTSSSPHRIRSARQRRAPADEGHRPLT
UniProt O75940: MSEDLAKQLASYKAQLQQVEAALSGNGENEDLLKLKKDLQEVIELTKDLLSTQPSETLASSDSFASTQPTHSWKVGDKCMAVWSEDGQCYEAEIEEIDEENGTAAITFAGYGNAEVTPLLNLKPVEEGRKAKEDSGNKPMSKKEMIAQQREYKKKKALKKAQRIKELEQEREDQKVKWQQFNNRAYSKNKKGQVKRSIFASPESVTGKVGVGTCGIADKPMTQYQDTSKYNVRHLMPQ
UniProt O14508, whole entry, looked up: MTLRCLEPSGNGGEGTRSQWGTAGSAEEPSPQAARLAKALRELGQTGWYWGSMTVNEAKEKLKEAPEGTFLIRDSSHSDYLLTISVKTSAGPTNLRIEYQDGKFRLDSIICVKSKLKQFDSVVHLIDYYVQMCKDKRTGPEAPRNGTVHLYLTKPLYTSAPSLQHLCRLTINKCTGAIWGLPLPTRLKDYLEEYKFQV
UniProt Q14BN4: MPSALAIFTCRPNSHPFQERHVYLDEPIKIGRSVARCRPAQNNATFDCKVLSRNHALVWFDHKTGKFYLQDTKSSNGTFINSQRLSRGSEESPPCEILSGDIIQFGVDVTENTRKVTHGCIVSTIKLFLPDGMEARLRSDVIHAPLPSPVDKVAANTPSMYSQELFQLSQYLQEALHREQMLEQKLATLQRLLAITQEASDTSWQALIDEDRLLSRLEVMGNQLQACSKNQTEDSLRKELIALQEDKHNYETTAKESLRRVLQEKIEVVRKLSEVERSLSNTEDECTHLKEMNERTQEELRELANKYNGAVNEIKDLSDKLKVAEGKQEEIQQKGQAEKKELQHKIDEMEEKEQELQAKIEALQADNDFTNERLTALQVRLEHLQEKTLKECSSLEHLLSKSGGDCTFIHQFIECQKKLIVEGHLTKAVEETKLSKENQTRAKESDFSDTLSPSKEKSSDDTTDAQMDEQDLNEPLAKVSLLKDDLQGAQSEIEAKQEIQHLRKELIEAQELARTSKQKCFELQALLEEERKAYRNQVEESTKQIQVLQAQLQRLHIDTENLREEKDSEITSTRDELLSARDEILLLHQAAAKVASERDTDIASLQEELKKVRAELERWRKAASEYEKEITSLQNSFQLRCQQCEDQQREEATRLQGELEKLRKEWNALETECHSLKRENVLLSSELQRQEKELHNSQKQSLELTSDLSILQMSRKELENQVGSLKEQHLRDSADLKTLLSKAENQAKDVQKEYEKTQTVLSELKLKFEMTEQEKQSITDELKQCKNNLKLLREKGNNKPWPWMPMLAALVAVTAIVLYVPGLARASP
UniProt P52788: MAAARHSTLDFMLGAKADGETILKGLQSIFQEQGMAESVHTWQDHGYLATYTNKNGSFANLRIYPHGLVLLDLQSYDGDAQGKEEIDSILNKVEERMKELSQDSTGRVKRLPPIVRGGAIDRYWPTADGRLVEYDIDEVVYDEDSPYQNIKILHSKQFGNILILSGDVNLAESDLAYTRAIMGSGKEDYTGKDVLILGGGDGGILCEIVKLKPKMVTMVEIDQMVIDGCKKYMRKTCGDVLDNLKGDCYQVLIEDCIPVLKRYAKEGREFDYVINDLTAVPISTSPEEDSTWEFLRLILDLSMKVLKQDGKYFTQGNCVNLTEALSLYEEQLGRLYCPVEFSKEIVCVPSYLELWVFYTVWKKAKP
UniProt Q12824, whole entry, looked up: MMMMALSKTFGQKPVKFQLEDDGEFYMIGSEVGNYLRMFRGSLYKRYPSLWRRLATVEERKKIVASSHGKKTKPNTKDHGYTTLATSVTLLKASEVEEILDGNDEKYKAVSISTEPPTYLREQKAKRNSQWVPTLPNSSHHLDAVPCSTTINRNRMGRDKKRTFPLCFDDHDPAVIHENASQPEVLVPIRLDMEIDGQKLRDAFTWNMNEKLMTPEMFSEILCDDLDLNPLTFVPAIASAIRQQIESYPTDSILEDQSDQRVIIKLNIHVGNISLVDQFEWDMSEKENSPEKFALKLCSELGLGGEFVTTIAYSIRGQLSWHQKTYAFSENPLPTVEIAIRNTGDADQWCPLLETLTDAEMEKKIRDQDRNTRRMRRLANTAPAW
UniProt B2RUZ4: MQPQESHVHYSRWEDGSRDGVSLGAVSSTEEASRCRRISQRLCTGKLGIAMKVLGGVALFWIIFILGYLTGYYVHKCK
UniProt O75391: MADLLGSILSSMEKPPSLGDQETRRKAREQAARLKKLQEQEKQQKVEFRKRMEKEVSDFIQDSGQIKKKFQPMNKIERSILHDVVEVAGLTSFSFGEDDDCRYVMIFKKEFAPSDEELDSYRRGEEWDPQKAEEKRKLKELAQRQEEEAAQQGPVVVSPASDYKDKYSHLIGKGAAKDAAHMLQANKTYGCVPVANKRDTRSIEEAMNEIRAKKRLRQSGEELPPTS

Results on 27 targets are retold here after the supplement of paper PMC10849652.

The list shows a part of the results.

Turning to SP4 (UniProt Q02446), the log2 fold change was inactive: 0.09. Then SNX27 (UniProt Q96L92), with inactive: 0.281; and SMC2 (UniProt O95347), with inactive: 0.022. For SMPD2 (UniProt O60906), the log2 fold change was inactive: -0.012. Then SNRPF (UniProt P62306), with inactive: -0.018; and SPA17 (UniProt Q15506), with inactive: 0.071.

In the case of SMU1 isoform 2 (UniProt Q2TAY7), the log2 fold change was inactive: -0.342. Then SNX8 (UniProt Q9Y5X2), with inactive: 0.075. Then SNX14 (UniProt Q9Y5W7), with inactive: -0.028. Then SMCR8 (UniProt Q8TEV9), with inactive: -0.19; and SMIM13 (UniProt P0DJ93), with inactive: 0.01. SMNDC1 (UniProt O75940): the log2 fold change was inactive: -0.118. For SNX16 (UniProt P57768), the log2 fold change was inactive: -0.073.

In the case of SOCS2 (UniProt O14508), the log2 fold change was inactive: -0.029. Take SLMAP (UniProt Q14BN4): the log2 fold change was inactive: 0.029.

As for SNX17 (UniProt Q15036), the log2 fold change was inactive: -0.061. Take SNRPA (UniProt P09012): the log2 fold change was inactive: 0.06. Then SMARCA2 (UniProt P51531), with inactive: 0.015; and SMS (UniProt P52788), with inactive: -0.018; and SPAG5 (UniProt Q96R06), with inactive: 0.13. Then SMAD4 (UniProt Q13485), with inactive: -0.044; and SNAP23 (UniProt O00161), with inactive: 0.014.

For SMARCB1 (UniProt Q12824), the log2 fold change was active: 0.887. For SOS1 (UniProt Q07889), the log2 fold change is inactive: -0.008. Then SMUG1 (UniProt Q53HV7), with inactive: -0.166. As to SMIM1 (UniProt B2RUZ4), the log2 fold change is inactive: -0.058. Then SPAG7 (UniProt O75391), with inactive: -0.007.
